# Measurements taken from the RNAGym collection of RNA variant scans (doi:10.1126/science.aae0568).
# This sample is rich in variants without activity.
# B1: tRNA (parent)
# chain: GUUCCGUUGGCGUAAUGGUAACGCGUCUCCCUCCUAAGGAGAAGACUGCGGGUUCGAGUCCCGUACGGAACG
# Variants of: B1
# Assay: yeast fitness relative to wild type (ratio to wild type); higher = fitter; tRNA-Arg(CCU), competitive growth, 37 C, YPD
# Summary of the method: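 A pool of Saccharomyces cerevisiae strains, each with a tRNA-Arg(CCU) gene variant at the native genomic locus, was competed in YPD at 37°C for 24 hours across six parallel replicates. The variants had been chemically synthesised at a 3% per-site mutation rate over 69 sites, and gene amplicons before and after competition were read by 100-nucleotide paired-end sequencing. Darwinian fitness relative to wild type rested on changes in genotype frequencies. Genotypes required ≥ 100 starting reads, and estimates < 0.5 were set to 0.5.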
row,Variant,yeast fitness
1,C22U A42G A45U G52A,≤ 0.5
2,C22U A42G G52A C55A,≤ 0.5
3,C22U A57G C60A,≤ 0.5
4,C22U C24A A70U,≤ 0.5
5,C22U C24A G56C U59G,≤ 0.5
6,C22U C27G C31U G68A,≤ 0.5
7,C22U C30U C33U A45C,0.548
8,C22U C33A U64C,≤ 0.5
9,C22U C33G C62U A70U,≤ 0.5
10,C22U C34A A43U C66A,≤ 0.5
11,C22U C34G A36U A65C,0.573
12,C22U C34U,0.665
13,C22U C61U,0.72
14,C22U G25C C27G,≤ 0.5
15,C22U G25C C31U,0.625
16,C22U G38C C46U,≤ 0.5
17,C22U G41A C55G,≤ 0.5
18,C22U G41C C49G,≤ 0.5
19,C22U G44A C46G G51A G63A,≤ 0.5
20,C22U G52A C55A A69C,≤ 0.5
21,C22U U28C G67C,≤ 0.5
22,C22U U32C G52A C55A A57G U59G,≤ 0.5
23,C22U U35C G51A C55A C66U,≤ 0.5
24,C22U U59A C61G,0.547

row,Variant,yeast fitness
1,G23A A36C A37C U53G A70C,≤ 0.5
2,G23A A42G,0.747
3,G23A A57C C60A,≤ 0.5
4,G23A C27G G56A,≤ 0.5
5,G23A C31U G48C C55G,≤ 0.5
6,G23A C33G C49U A70U,≤ 0.5
7,G23A C49U C61A,≤ 0.5
8,G23A C49U G58A,≤ 0.5
9,G23A C61A C62U A65U A69C,≤ 0.5
10,G23A G58C,0.885
11,G23A G58C C60U C61U C62G,≤ 0.5
12,G23A U26A C30U A40U G44A C62U,≤ 0.5
13,G23C A36U,≤ 0.5
14,G23C A37C C46G,≤ 0.5
15,G23C A37G A43U G50C A57G,≤ 0.5
16,G23C A42U C49G,≤ 0.5
17,G23C C27G C34U U35A G38A A65U,≤ 0.5
18,G23C C29G A43U G50A G68C,≤ 0.5
19,G23C C29G G63C C66G,≤ 0.5
20,G23C C31A C62A,0.527
21,G23C C33G A57G,≤ 0.5
22,G23C C55U G67A,≤ 0.5
23,G23C G39C,0.53
24,G23C G41A C62A,≤ 0.5

row,Variant,yeast fitness
1,G23C G58U,0.565
2,G23C U28G A42U,≤ 0.5
3,G23U C24U U35G,≤ 0.5
4,G23U G25C C49U C61U,≤ 0.5
5,G23U U28G A69U,≤ 0.5
6,C24A A36U,≤ 0.5
7,C24A A36U C55A C66U,≤ 0.5
8,C24A A37G A57G A65G,≤ 0.5
9,C24A A37U C60A C66U,≤ 0.5
10,C24A A40C A43C C46U,≤ 0.5
11,C24A A40G C66G,≤ 0.5
12,C24A A40U A70U,≤ 0.5
13,C24A A42U U59A,≤ 0.5
14,C24A A43U G50A G67A,≤ 0.5
15,C24A A45C G48A,≤ 0.5
16,C24A C27G C29A A70G,≤ 0.5
17,C24A C31A A40U A42C C49A,≤ 0.5
18,C24A C31A A43U,≤ 0.5
19,C24A C31G C60U,≤ 0.5
20,C24A C31U A42C C66A,≤ 0.5
21,C24A C33G C60G,≤ 0.5
22,C24A C46U C61A,≤ 0.5
23,C24A C55A,≤ 0.5
24,C24A C62U A70C,≤ 0.5

row,Variant,yeast fitness
1,C24A C66A A69C,≤ 0.5
2,C24A G25A C49U C62A,≤ 0.5
3,C24A G25A C62A,≤ 0.5
4,C24A G39C A70G,≤ 0.5
5,C24A G39C U47C U59C,≤ 0.5
6,C24A G48A U53G G63U,≤ 0.5
7,C24A G48C,0.621
8,C24A G48C U54G C55U C66U,≤ 0.5
9,C24A G52A C55U,≤ 0.5
10,C24A U26A C31A C62A,≤ 0.5
11,C24A U26A C55A C66U,≤ 0.5
12,C24A U26G A43C G51A C62G G63A C66G A69G,≤ 0.5
13,C24A U32C G39C A70C,≤ 0.5
14,C24A U47G G68A,≤ 0.5
15,C24A U59A C61U,0.567
16,C24A U64C,0.706
17,C24G A36C,0.531
18,C24G A36C A42U A57U,≤ 0.5
19,C24G A36C U54C A70C,≤ 0.5
20,C24G A36G G68A,≤ 0.5
21,C24G A36G U54C U64C,≤ 0.5
22,C24G A36U A37C,≤ 0.5
23,C24G A36U A42U C49G U53A G58A C60A,≤ 0.5
24,C24G A37C C46U A65C,≤ 0.5

row,Variant,yeast fitness
1,C24G A37G G52C A69U,≤ 0.5
2,C24G A37U G56A A65C,≤ 0.5
3,C24G A40C A43C C46U G68C A69U,≤ 0.5
4,C24G A40G C66U,0.515
5,C24G A40G G50C,0.599
6,C24G A43G,0.573
7,C24G A65U G67C,≤ 0.5
8,C24G C27G A37C A45U A65G,≤ 0.5
9,C24G C27G A37C G52A G67A,≤ 0.5
10,C24G C27U A40U,≤ 0.5
11,C24G C27U C34U C55G C62A G68A,≤ 0.5
12,C24G C29U U35C,≤ 0.5
13,C24G C30A A42G C66A,≤ 0.5
14,C24G C30A C34U G39A G44A G58C A65C,≤ 0.5
15,C24G C30U C34A C46U A70U,≤ 0.5
16,C24G C30U C34A G51A A69C,≤ 0.5
17,C24G C33G U59C,≤ 0.5
18,C24G C34G A43C C49U A57C,≤ 0.5
19,C24G C46G C61U A65C,≤ 0.5
20,C24G C62A,≤ 0.5
21,C24G G25A C60G,≤ 0.5
22,C24G G25C A40C A42U U47A C61G G63A C66G,≤ 0.5
23,C24G G41C A65C,≤ 0.5
24,C24G G48A A57U,≤ 0.5

row,Variant,yeast fitness
1,C24G G51C G68A,≤ 0.5
2,C24G G58C G68A,≤ 0.5
3,C24G G63C G67A,≤ 0.5
4,C24G U32A C55G,≤ 0.5
5,C24G U35C A36G A65U,≤ 0.5
6,C24G U35C A45C C60A G68U,≤ 0.5
7,C24G U35C C55U,≤ 0.5
8,C24G U35G,≤ 0.5
9,C24G U35G A40G,≤ 0.5
10,C24U A36G C55G,≤ 0.5
11,C24U A43U U47G,≤ 0.5
12,C24U A45G A69U,0.888
13,C24U A45G C46G C55G A70C,≤ 0.5
14,C24U A70G,0.887
15,C24U C27G A42C C49A,≤ 0.5
16,C24U C27U A40G G44A,≤ 0.5
17,C24U C29G G48A A69U,≤ 0.5
18,C24U C29U A65C,≤ 0.5
19,C24U C30A A37G,0.593
20,C24U C31A C33A C34U A40U A45U,≤ 0.5
21,C24U C33U A69C,≤ 0.5
22,C24U C33U C46U C49A C62U,≤ 0.5
23,C24U C34A,0.783
24,C24U C34A G39A U54A,≤ 0.5

row,Variant,yeast fitness
1,C24U C34G A36U C61U,≤ 0.5
2,C24U C34U C55U C60U,≤ 0.5
3,C24U C49U U59G G67U,≤ 0.5
4,C24U C55G G56C,≤ 0.5
5,C24U G25A C30U C46A A69U,0.611
6,C24U G38C A57C,≤ 0.5
7,C24U G39A A40C C61G,≤ 0.5
8,C24U G48C,0.955
9,C24U G51C,0.624
10,C24U G67C,0.698
11,C24U G67U,0.869
12,C24U U26A U28G U47C U54G,≤ 0.5
13,C24U U26C C55G,≤ 0.5
14,C24U U28C A36C U53C C60A,≤ 0.5
15,C24U U32A U35C C55U G68C,≤ 0.5
16,C24U U32G A40U U53C U64G,≤ 0.5
17,C24U U32G A42G,≤ 0.5
18,C24U U32G G51A,≤ 0.5
19,G25A A37C C46U A57U,≤ 0.5
20,G25A A37U A43C C55A C60G G63C,≤ 0.5
21,G25A A40U G58C,0.973
22,G25A A42C U59G G67U,≤ 0.5
23,G25A A43U U54A C66U,≤ 0.5
